Measured values as given in US20240368549A1, “ENHANCEMENT OF HEMATOPOIETIC STEM CELL AND HEMATOPOIETIC PROGENITOR CELL EXPANSION WITH AGENTS THAT ACTIVATE TAM RECEPTORS” (CANADIAN BLOOD SERVICES, priority 2021, published 2024).

Test system: CD34+CD45RA− HSPCs
Test: 5-methylcytosine (5MC) level by intracellular flow cytometry
Assay type: cell-based, human

Row | SMILES | methylation level of cytosine (5MC) in the DNA of cultured HSPC (14 days culture, compared to STFL control, X2B or C6, hydrate) | effect of TET inhibition on methylation in AA2P and X2A cultures (30 μM, added at day 10)
1 | O.O=C1O[C@H]([C@@H](O)CO)C(O)=C1OP(=O)([O-])[O-].[Mg+2] [AA2P, L-ascorbic acid 2-phosphate magnesium salt hydrate] | promoted DNA demethylation; also recorded: significantly different; also recorded: hypomethylates | –
2 | Nc1nc(=O)n(-c2cccc(-c3ccccc3)c2)cc1Cl [Bobcat339] | – | increased the methylation

Entries after “also recorded” stand apart in the source; their conditions may differ.
